Measurements: publication PMC5111407
Results are given in words; binding and its absence hold for the method and conditions named. In cells and extracts the contact can be indirect. A result given as binding can be weak or reduced; the word gives no strength.

B1: Rpd31-3HA (enzyme, UniProt Q5ADP0 1-577)
chain: MYTELPFDELKVDPNQKKRIAYFYDADIGNYAYGAGHPMKPHRIRMAHSLIMNYGLYKKMEIYRAKPATKQEMCQFHTDEYIDFISRVNPDNLDLFTKEQIKFNVGDDCPVFDGLFEYCGISGGGSMEGAARLNRGKCDIAINYAGGLHHAKKSEASGFCYLNDIVLGIIELLRYHPRVLYIDIDVHHGDGVEEAFYTTDRVMTCSFHKYGEFFPGTGELRDIGVGKGKYHSVNVPLRDGIDDATYKSVFEPVISKIIEWYQPSAIVLQCGGDSLSGDRLGCFNLSMNGHANCINYVKSFNIPMMVVGGGGYTMRNVARTWAYESGLLNNVKLPDELPYNEYYEYYGPDYKLDVRSSNMFNQNSPEFLDKILTNIIANLENTKHAPSVQMNEVPNDPEDLGDVEEDTAMAIDTKGGSEMSRDAQIQPDNEFYEDDEKDKGEKAIIDNKHEDQDSMQVDKSEEPVVEQKDKPQDENNVTGDNIEEDQPQEVNPIEEQPSVEKSVVVVEDKLEEVKPVEQKVEEPKEVVDKPEDKHEDKPAETLTETTTESKPEDQPMEDAAKLTEEELKEIEELNKSS
B2: Rpd31-T2-3HA (domain or fragment, UniProt Q5ADP0 1-417)
chain: MYTELPFDELKVDPNQKKRIAYFYDADIGNYAYGAGHPMKPHRIRMAHSLIMNYGLYKKMEIYRAKPATKQEMCQFHTDEYIDFISRVNPDNLDLFTKEQIKFNVGDDCPVFDGLFEYCGISGGGSMEGAARLNRGKCDIAINYAGGLHHAKKSEASGFCYLNDIVLGIIELLRYHPRVLYIDIDVHHGDGVEEAFYTTDRVMTCSFHKYGEFFPGTGELRDIGVGKGKYHSVNVPLRDGIDDATYKSVFEPVISKIIEWYQPSAIVLQCGGDSLSGDRLGCFNLSMNGHANCINYVKSFNIPMMVVGGGGYTMRNVARTWAYESGLLNNVKLPDELPYNEYYEYYGPDYKLDVRSSNMFNQNSPEFLDKILTNIIANLENTKHAPSVQMNEVPNDPEDLGDVEEDTAMAIDTKGGS

Molecular target: Rco1-9myc (Candida albicans)
Experiment: co-IP; whole-cell extracts of strains coexpressing Rco1-9myc and a 3HA-tagged Rpd3, Rpd31 or Rpd31-T2 precipitated with anti-myc antibody, immunoblotted with anti-HA and anti-myc

| Binder | binding |
| --- | --- |
| B1 | binds |
| B2 | no binding |
